Some entries share one result that the patent states for a list of compounds.
Assays:
armyworm = assay: Insecticidal activity against armyworm in greenhouse (airbrush spraying of corn leaf discs); type: in vivo; details: 100 mg/L, 72 h
Protocol: (§1) Compounds were dissolved in mixed solvent (acetone:methanol=1:1), and diluted to required concentration with water containing 0.1% of tweed 80.
(§2) The method of spraying by airbrush: The corn leaves were made into plates of 2 cm diameter by use of punch. A test solution (0.5 ml) was sprayed by airbrush at the pressure of 0.7 kg/cm^2 to both sides of every plate. 10 Second instar larvae were put into the Petri-dishes after the leaf disc air-dried and 3 replicates were set thr each treatment. Then the insects were maintained in observation room (25° C., 60˜70% R.H.). Scores were conducted and mortalities were calculated after 72 h.

diamond back moth = assay: Insecticidal activity against diamond back moth in greenhouse (airbrush spraying of cabbage leaf discs); type: in vivo; details: 72 h
Protocol: as §1
as §2, with “cabbage” for “corn”, “petri-dishes” for “Petri-dishes”, “for” for “thr”, “R.H.),” for “R.H.).”

Structure (SMILES) | control of the armyworm (armyworm) | control of the second instar larvae of diamond back moth (diamond back moth; 50 mg/L) | control of the second instar larvae of diamond back moth (diamond back moth; 600 mg/L)
Fc1cc(Cl)cnc1Oc1ccc(OCCCOc2c(Cl)cc(OCC=C(Cl)Cl)cc2Cl)cc1 [Compound 3] | more than 90% | more than 80% | –
ClC(Cl)=CCOc1cc(Cl)c(OCCCOc2ccc(Oc3nc(Cl)c(Cl)cc3Cl)cc2)c(Cl)c1 [Compound 11] | more than 90% | more than 80% | –
ClC(Cl)=CCOc1cc(Cl)c(OCCCOc2ccc(Oc3ccccc3)cc2)c(Cl)c1 [Compound 38] | – | more than 80% | –
CC(C)(C)n1ncc(Oc2ccc(OCCCOc3c(Cl)cc(OCC=C(Cl)Cl)cc3Cl)cc2)c(Cl)c1=O [Compound 57] | more than 90% | – | –
Fc1cccc(Cl)c1COc1ccc(OCCCOc2c(Cl)cc(OCC=C(Cl)Cl)cc2Cl)cc1 [Compound 72] | more than 90% | – | –
ClC(Cl)=CCOc1cc(Cl)c(OCCCOc2ccc(OCc3cnc(Cl)s3)cc2)c(Cl)c1 [Compound 80] | more than 90% | – | –
FC(F)(F)c1ccc(Oc2ccc(OCCCOc3ccc(OCC=C(Cl)Cl)cc3Cl)cc2)nc1 [Compound 83] | more than 90% | more than 80% | –
FC(F)(F)c1cnc(Oc2ccc(OCCCOc3ccc(OCC=C(Cl)Cl)cc3Cl)cc2)c(Cl)c1 [Compound 84] | – | – | more than 80%
FC(F)(F)c1cnc(Oc2ccc(OCCCOc3c(Cl)cc(OCC=C(Cl)Cl)c(Cl)c3Cl)cc2)c(Cl)c1 [Compound 118] | – | – | more than 80%

Reference: patent US8969332B2, “Aryloxy dihalopropenyl ether compounds and uses thereof” (Sinochem Corporation, priority 2011, dated 2015)
